In assay [1] the target is T1, TIMP-2 region 196…205 (human).
T1 sequence (peptide): RSDGSCAWYR
As to the kind of experiment: Pepscan ELISA on linear 15-mer TIMP-2 peptides.

The target of assay [2] is T2, TIMP-2 region 33…41 (human).
T2 sequence (peptide): HPQQAFCNA
As to the kind of experiment: Pepscan ELISA on linear 15-mer TIMP-2 peptides.

Consider one molecule from patent US20200071416A1 (ASTUTE MEDICAL, published 2020).

No constants are given. Whether binding was seen depends on the method and setting. Some binding calls cover weakened binding; strength is not graded here.

B1: antibody 40H2-40K3 (antibody, V domains shown)
VH: QSLEESGGDLVKPEGSLTLTCTASGFTISSNYYMCWVRQAPGKGLEWVACILGGSGTYTYYATWAKGRFTISKTSSTTVTLQMPSLTAADTATYFCARQAPADTYLYGGYGPFNLWGQGTLVTVSS
VL: DIVMTQTPSSVEAAVGGTVTIKCQASESISGWLAWYQQKPGQPPKLLIYRASTLESGVPSRFKGSGSGTEFTLTISDLECADAATYYCQCSYGINGNSEHGNPFGGGTEVVVKR
Consider B1, for which the binding entry in assay [1] and in assay [2] was “binds” throughout.
